Data as given in PubChem BioAssay AID1053208 (Peter MacCallum Cancer Centre, 2014).

Assay: 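Genes whose silencing cuts survival of bone tumour cells only with doxorubicin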 (primary screen)
Cells: mouse osteosarcoma cells, early-passage culture from an engineered mouse model of fibroblastic bone tumour
Knock-down reagent: siRNA pool against mouse genes, 40 nM
Time to read-out: about 120 h (48 h before drug, then 72 h with drug)
Treatment: doxorubicin 100 nM for 72 h, roughly 30-40% inhibitory dose
Measured: 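Luminescent ATP signal taken as viability with or without 100 nM doxorubicin for 72 h; mean of two wells set against non-targeting siRNA and turned into robust z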
Direction: viability z-score with doxorubicin: higher = more viable cells under doxorubicin; viability z-score without drug: higher = more viable cells with knock-down alone
Rule for the call: 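a pool counts as active when its viability z-score with doxorubicin is -2 or below and its z-score without drug lies between -2 and 2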
This is an unselected part of about 17,000 reagents tested. 788 of them (4.7%) were called active. 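Calls rest on z-score classes alone; an extra cut-off of viability at most 70% of control was not applied to them.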 Unmarked entries are inactive. Further read-outs or replicates are left out here.

target gene | combined z-score class | viability z-score with doxorubicin | viability z-score without drug
Map7d1 | no change with or without drug | 0.22 | 0
Ddx54 | no change with or without drug | 0.67 | 0.84
Sack1a | no change with or without drug | -1.24 | -0.84
Ifnb1 | no change with or without drug | 0.67 | 0.17
Ndufs5-ps | no change with or without drug | 0.9 | -0.84
Rel | no change with or without drug | 0.67 | 0.67
Or1x2 | no change with or without drug | 1.35 | 1.18
Pilra | high cell count with and without drug | 3.26 | 3.37
Bckdha | no change with or without drug | 1.46 | -0.51
Tomm6 | no change with or without drug | 0.22 | 0.34
D2hgdh | no change with or without drug | -0.9 | 0
Slc25a36 | no change with or without drug | -0.45 | 0.17
Ssh2 | low cell count without drug only | -0.67 | -2.19
Klhl22 | no change with or without drug | -0.56 | -0.51
Ccnb3 | no change with or without drug | 0.9 | 0.17
Fam53a | no change with or without drug | 0 | 1.52
Cdadc1 | no change with or without drug | 0.11 | -0.51

8 entries from above, limited to “viability z-score with doxorubicin”.
Ddx54: 0.67
Sack1a: -1.24
Ifnb1: 0.67
Ndufs5-ps: 0.9
Rel: 0.67
Or1x2: 1.35
Pilra: 3.26
Bckdha: 1.46

Additional records follow:
target gene | combined z-score class | viability z-score with doxorubicin | viability z-score without drug
Cldn7 | low cell count with doxorubicin only (active) | -2.25 | -1.52
Etd | no change with or without drug | 0.34 | 0.51
Slc39a11 | no change with or without drug | 0.34 | -0.84
H2-M10.3 | no change with or without drug | 0.11 | 0.34
Insl6 | high cell count with doxorubicin only | 2.59 | 1.85
Magi2 | no change with or without drug | -0.22 | -0.84
Bard1 | no change with or without drug | -0.34 | -0.17
Ddx6 | no change with or without drug | 0.34 | -0.84
Rex2 | no change with or without drug | 1.24 | 0.51
Nbn | no change with or without drug | 0.9 | -0.84
Nalcn | no change with or without drug | 0.45 | 0.17
Lcp1 | no change with or without drug | 1.12 | 0.51
Senp3 | no change with or without drug | -0.79 | -0.84
Scn10a | no change with or without drug | -0.22 | -0.84
Acvr2a | no change with or without drug | 0.45 | 0.51
Foxd4 | no change with or without drug | 0.22 | -0.51
Lrrc8c | high cell count without drug only | -0.22 | 2.02
Klra2 | no change with or without drug | -0.45 | -0.67
Pecr | no change with or without drug | 0.45 | 0.84
Tubb4a | no change with or without drug | 0.22 | 1.01
Btg4 | no change with or without drug | 0.56 | -1.01
Rb1cc1 | high cell count without drug only | 1.91 | 3.37
Ppp1r8 | no change with or without drug | -1.24 | -0.84
Cnot6l | no change with or without drug | -1.12 | -1.01
Enox1 | no change with or without drug | -0.67 | -0.34
H2-T3 | no change with or without drug | 0 | 0.17
Pfpl | low cell count with doxorubicin only (active) | -2.81 | -0.84
Atxn10 | no change with or without drug | 1.35 | -0.17
Tmprss7 | no change with or without drug | -0.67 | -0.17
P2ry2 | no change with or without drug | 1.8 | 0.51
Spata9 | no change with or without drug | 1.46 | 1.52
Grid2 | no change with or without drug | -0.34 | -0.51
Frmd8 | no change with or without drug | -1.8 | 1.35
